PubChem BioAssay AID504804 – Drosophila RNAi Screening Center – 2011

Purpose: 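Knock-downs shielding fly cells from apoptosis caused by DNA damage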 (primary screen)
Cell system: Drosophila Kc cells
Knock-down reagent: long dsRNA against Drosophila genes, 0.5 µg dsRNA per well
Duration: 96 h (48 h knock-down, then 48 h drug)
Conditions: doxorubicin 5 µg/ml for 48 h, added 48 h after dsRNA
Read-out: 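Luminescent ATP counts per replicate, not normalised, reflecting viable cells after 48 h dsRNA knock-down followed by 48 h of 5 µg/ml doxorubicin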
Direction: raw ATP luminescence: higher = more viable cells, protection from doxorubicin
Rule for the call: 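z-score of 2 or more over plate mean in both duplicates, retained only when retests and separate dsRNAs confirm the protection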
The screen tested about 19,000 reagents; below is an unselected part of those that have a named target and a result. In the full data, 47 (0.25%) were called active. 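Signals are raw, not normalised; exact z-scores behind calls not deposited; actives needed confirmation, so some wells reaching 2 SD are inactive.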 A plus sign joins genes that one reagent is predicted to hit. Reagent sequences are not shown.

Knock-down of gny (GeneID 34409) [DRSC02810] came out at: raw ATP luminescence, replicate 1 = 89247; raw ATP luminescence, replicate 2 = 56063; inactive.
For CG6026 (GeneID 42287) [DRSC15950], the values are raw ATP luminescence, replicate 1 = 34380; raw ATP luminescence, replicate 2 = 38990; inactive.
For Mhc (GeneID 35007) [DRSC03367], the entry reads raw ATP luminescence, replicate 1 = 40510; raw ATP luminescence, replicate 2 = 83090; inactive.
CG15155 (GeneID 35087) [DRSC02456] showed raw ATP luminescence, replicate 1 = 52090; raw ATP luminescence, replicate 2 = 61883; inactive.
CG10417 (GeneID 35492) [DRSC04846] gave raw ATP luminescence, replicate 1 = 72103; raw ATP luminescence, replicate 2 = 68737; inactive.
After knock-down of DIP-alpha (GeneID 31322) [DRSC17891] the results were raw ATP luminescence, replicate 1 = 1.41e5; raw ATP luminescence, replicate 2 = 1.94e5; inactive.
DIP-alpha (GeneID 31322) [DRSC17892] scored raw ATP luminescence, replicate 1 = 14100; raw ATP luminescence, replicate 2 = 22200; inactive.
Depletion of Tssk (GeneID 42233) [DRSC14784] resulted in: raw ATP luminescence, replicate 1 = 64650; raw ATP luminescence, replicate 2 = 59230; inactive.
With knock-down of btv (GeneID 35073) [DRSC01615], the screen gave raw ATP luminescence, replicate 1 = 2.22e5; raw ATP luminescence, replicate 2 = 1.78e5; inactive.
Depletion of btv (GeneID 35073) [DRSC02449] resulted in: raw ATP luminescence, replicate 1 = 73937; raw ATP luminescence, replicate 2 = 71093; inactive.
Against Reck (GeneID 39629) [DRSC10504], the entry reads raw ATP luminescence, replicate 1 = 25903; raw ATP luminescence, replicate 2 = 16600; inactive.
Reck (GeneID 39629) [DRSC10505] gave raw ATP luminescence, replicate 1 = 50620; raw ATP luminescence, replicate 2 = 46103; inactive.
Knock-down of Rubicon (GeneID 31803) [DRSC17889] came out at: raw ATP luminescence, replicate 1 = 53450; raw ATP luminescence, replicate 2 = 53970; inactive.
Knock-down of bora (GeneID 40031) [DRSC10744] came out at: raw ATP luminescence, replicate 1 = 39123; raw ATP luminescence, replicate 2 = 39460; inactive.
For mir-210 (retired record) (GeneID 3771928) [DRSC19230], the entry reads raw ATP luminescence, replicate 1 = 2.19e5; raw ATP luminescence, replicate 2 = 2.18e5; inactive.
Knock-down of CG16837 (GeneID 37904) [DRSC04283] resulted in: raw ATP luminescence, replicate 1 = 38940; raw ATP luminescence, replicate 2 = 45733; inactive.
CG2070 (GeneID 35706) [DRSC06814] scored raw ATP luminescence, replicate 1 = 40800; raw ATP luminescence, replicate 2 = 72590; inactive.
Knock-down of CG34188 (GeneID 5740108) [DRSC05549] resulted in: raw ATP luminescence, replicate 1 = 1.03e5; raw ATP luminescence, replicate 2 = 1.10e5; inactive.
With knock-down of UGP (GeneID 39065) [DRSC10411], the record shows raw ATP luminescence, replicate 1 = 39723; raw ATP luminescence, replicate 2 = 31357; inactive.
With knock-down of CG7791 (GeneID 35511) [DRSC04891], the record shows raw ATP luminescence, replicate 1 = 74140; raw ATP luminescence, replicate 2 = 65377; inactive.
CG3662 (GeneID 33260) [DRSC00626] gave raw ATP luminescence, replicate 1 = 92173; raw ATP luminescence, replicate 2 = 80383; inactive.
CG17601 (GeneID 33143) [DRSC20639] scored raw ATP luminescence, replicate 1 = 3.55e5; raw ATP luminescence, replicate 2 = 3.28e5; inactive.
CG42506 (retired record) + CG43759 [DRSC19543] gave raw ATP luminescence, replicate 1 = 3.65e5; raw ATP luminescence, replicate 2 = 3.21e5; inactive.
Silencing of CG14185 (GeneID 40197) [DRSC10184] resulted in: raw ATP luminescence, replicate 1 = 68100; raw ATP luminescence, replicate 2 = 62187; inactive.
CG18744 (GeneID 59140) [DRSC15381] showed raw ATP luminescence, replicate 1 = 66017; raw ATP luminescence, replicate 2 = 57313; inactive.
After knock-down of CG12699 (GeneID 36944) [DRSC06162], the record shows raw ATP luminescence, replicate 1 = 66917; raw ATP luminescence, replicate 2 = 75343; inactive.
With knock-down of CG4594 (GeneID 34316) [DRSC02762], the record shows raw ATP luminescence, replicate 1 = 1.00e5; raw ATP luminescence, replicate 2 = 68023; inactive.
With knock-down of CG14760 (GeneID 35802) [DRSC06495], the screen gave raw ATP luminescence, replicate 1 = 49027; raw ATP luminescence, replicate 2 = 70293; inactive.
